Data as given in PubChem BioAssay AID720505 (Drosophila RNAi Screening Center, 2013)

Purpose: 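Knock-downs that reduce calcium influx once internal stores are emptied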 (primary screen)
Cells: Drosophila S2R+ cells
Reagents: long dsRNA against Drosophila genes
Challenge: thapsigargin (2 µM) in calcium-free buffer to empty internal stores, then 2 mM calcium added back
Detection: 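Stores emptied by 2 µM thapsigargin without calcium, then 2 mM calcium re-added; fluo-4 fluorescence followed by FLIPR in 384-well plates, per-well averaged endpoint, raw; two screen passes, some wells retested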
Scale: calcium signal and retest calcium signal: higher = more calcium entry after store depletion
Hit rule: 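Knock-downs counted as hits when calcium entry dropped relative to STIM1 positive and Rho1 negative controls present on each plate; roughly 1500 genes called, with reductions of differing size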
Calls: active = called as lowering calcium entry; inactive = not called
In all, the deposit lists about 20,000 reagents; this is an unselected part of those with a known target gene and a result. Over the whole deposit, about 2,100 (10%) are marked active. 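Raw plate signals without normalisation; calls rest on control-based scores that were not deposited; replicate 2 separates called from uncalled poorly.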 The numbers tell different reagents against one gene apart. Names joined by + are all predicted targets of the reagent. Reagent sequences are not shown. The record does not give: the amount of reagent, the time to read-out.

| gene knocked down | reagent no. | calcium signal, replicate 1 | calcium signal, replicate 2 | retest calcium signal, replicate 1 | retest calcium signal, replicate 2 | Call |
| --- | --- | --- | --- | --- | --- | --- |
| HP1c | 1 | 186 | 287 | 163 | 149 | inactive |
| Xrp1 | 1 | 71.3 | 70.8 | – | – | active |
| Xrp1 | 2 | 101 | 96.8 | – | – | inactive |
| CG7326 | 1 | 94.6 | 95.9 | – | – | inactive |
| CG5023 | 1 | 132 | 142 | – | – | inactive |
| DIP-zeta | 1 | 120 | 107 | – | – | inactive |
| DIP-zeta | 2 | 130 | 123 | 86.8 | 125 | inactive |
| DIP-zeta | 3 | 123 | 110 | – | – | inactive |
| Rap2l | 1 | 109 | 140 | – | – | inactive |
| yem | 1 | 188 | 145 | – | – | inactive |
| yem | 2 | 162 | 159 | – | – | inactive |
| Sec3 | 1 | 101 | 84 | – | – | inactive |
| CG10205 | 1 | 87.3 | 190 | – | – | inactive |
| CG12885 | 1 | 108 | 100 | – | – | inactive |
| Ir62a | 1 | 77.8 | 95.8 | – | – | inactive |
| CG5493 + CG5327 | 1 | 188 | 136 | – | – | inactive |
| CG11041 | 1 | 144 | 149 | – | – | inactive |
| CG31191 | 1 | 240 | 165 | – | – | inactive |
| CG31191 | 2 | 244 | 194 | – | – | inactive |

The list goes on (2 carried over from the part before).
| gene knocked down | reagent no. | calcium signal, replicate 1 | calcium signal, replicate 2 | retest calcium signal, replicate 1 | retest calcium signal, replicate 2 | Call |
| --- | --- | --- | --- | --- | --- | --- |
| CG31191 | 1 | 240 | 165 | – | – | inactive |
| CG31191 | 2 | 244 | 194 | – | – | inactive |
| S6kII | 1 | 79.1 | 166 | – | – | active |
| CG43755 | 1 | 98.7 | 159 | – | – | inactive |
| CG30428 | 1 | 88.4 | 118 | – | – | inactive |
| CG9018 | 1 | 71.8 | 95.2 | – | – | inactive |
| CG17751 | 1 | 256 | 145 | – | – | inactive |
| CG17751 | 2 | 81.3 | 115 | – | – | inactive |
| CG11858 | 1 | 210 | 124 | 105 | 89.8 | inactive |
| CG31688 | 1 | 224 | 97.6 | – | – | inactive |
| CG31688 | 2 | 154 | 97.7 | – | – | inactive |
| CG13437 | 1 | 75.3 | 107 | – | – | inactive |
| exex | 1 | 91.1 | 77.8 | – | – | inactive |
| CG2604 | 1 | 107 | 76.5 | – | – | inactive |
| CG14324 | 1 | 120 | 140 | – | – | inactive |
| CG5346 | 1 | 161 | 199 | – | – | inactive |
| GluRIIB | 1 | 113 | 113 | – | – | inactive |
| GstE12 | 1 | 110 | 144 | – | – | inactive |
| CG4962 | 1 | 109 | 163 | – | – | inactive |
| CG15177 | 1 | 101 | 169 | – | – | inactive |
| RhoGEF4 | 1 | 115 | 83.6 | – | – | inactive |
| spn-F | 1 | 67.7 | 69.5 | – | – | active |
| CG13131 | 1 | 95.1 | 83.1 | – | – | inactive |
| CG13131 | 2 | 97.7 | 195 | – | – | inactive |
| mRpS7 | 1 | 80.4 | 154 | – | – | inactive |
| cbt | 1 | 82.7 | 147 | – | – | inactive |
| CG2611 | 1 | 87.5 | 109 | – | – | inactive |
| Fbxl4 | 1 | 181 | 108 | – | – | inactive |
| AspRS-m | 1 | 103 | 90.2 | – | – | inactive |
| CG4707 | 1 | 150 | 95.6 | – | – | inactive |
| FucTB | 1 | 161 | 132 | – | – | inactive |
| CG15914 | 1 | 129 | 141 | – | – | inactive |
| Npc2e | 1 | 95.7 | 117 | – | – | inactive |
| Npc2e | 2 | 119 | 188 | – | – | inactive |
| Jhbp6 | 1 | 101 | 121 | – | – | inactive |
| cg | 1 | 72.6 | 154 | – | – | inactive |
| cg | 2 | 111 | 125 | – | – | inactive |
| CG15126 | 1 | 177 | 148 | – | – | inactive |
| CG10561 | 1 | 100 | 92.2 | – | – | inactive |
